Patent US20120301476A1
No constants are given. Whether binding was seen depends on the method and setting. Some results given as binding are weak or reduced against the parent protein; the word gives no strength.

Key:
[1] = molecular target: T1, polypeptide of SEQ ID NO: 37 (CAPRIN-1 partial sequence) (human); experiment: ELISA on immobilised synthetic peptides
T1 sequence (peptide): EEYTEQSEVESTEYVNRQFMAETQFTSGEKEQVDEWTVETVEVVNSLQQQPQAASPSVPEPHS

[2] = molecular target: dog CAPRIN-1 in dog breast cancer tissue (dog); experiment: immunohistochemical staining of frozen dog breast cancer tissue sections

binding [1]	binding [2]	Binder
binds	binds	human-chicken chimeric antibody #1 having the chicken monoclonal antibody #1 variable region (antibody, V domains shown, not shown: a dimerising Fc or GST; large carriers) VH: AVTLDESGGGLQMSRGGLSLVCKASGFDFSSYQMNWIRQAPGKGLEFVAAINKFGNSTGHGAAVKGRVTISRDNGQSTVRLQLNNLRAEDTAIYFCTKHAYGYCGSGTWCAAGEIDAWGHGTEVIVSS VL: QAASTQPSSVSANPGETVEITCSGGGSYSYGWFQQKSPGSAPVTVIYYNNKRPSDIPSRFSGSKSGSTGTLTITGVQADDEAVYYCGSGDSTDTAVFGAGTTLTVLG
binds	binds	anti-CAPRIN-1 mouse monoclonal antibody #5 (antibody, V domains shown) VH: GAELVRSGASVKMSCKASGYSFTDYNMYWVKQTPGQGLEWIGYIYPGNGGTNYNQKFKGKATLTADTSSSTAYMQISSLTSEDSAVYFCARDYDDGGYAMDYWGQGTTVTVSS VL: DIQMTQSPASLSASVGETVTITCRASGNIHNYLTWYQQKQGKSPQLLVYNAKTLADGVPSRFSGSGSGTQYSLKINRLQPEDFGSYYCQHFWNIPWTFGGGTKLNSR
binds	binds	anti-CAPRIN-1 mouse monoclonal antibody #6 (antibody, V domains shown) VH: DAELVKPGASVKISCKASGYTFTDHSIHWVQQKPEQGLEWIGYISPGNGNIKYNEKFKGKATLTADKSSSTAYMQLNSLTSEDSAVYFCKRSLGRGGPYYFDYWGQGTTVTVSS VL: DIVLTQAAPSLPVTPGESVSISCRSSKSLLHSNGNTYLYWFLQRPGQSPQLLIYRMSNLASGVPDRFSGSGSGTAFTLRISRVEAEDVGVYYCMQHREYPVTFGSGPN
